# Assay results reported in the supplement of paper PMC8728848.
# The other results are listed elsewhere or left out.
# B1: Epa11 (Candida glabrata) (protein)
# chain: MGSSHHHHHHSSGLVPRGSHMASSNAPNYPVGCSPSVGTQLTPGLSLEVYAYPMDGNNGYCWNATYKDPEFPRSGYLKNKLLGKADGVVGPLNFLAKNKDCSPKVDTLPAGFNFPQPITVTNFTMVLFGYLAPKQSGKYTFKLLADDLLLLNLGATNAFDCCNREATKNNLGEFLAYNLWPNQDKNVTVYLEKGVYYPLRLFFNNRDGGSQLDFSYYFNDSPAPLTDFSGMFFSVPDGAECPARI
# How the values were obtained:
# Assay in all cases: glycan array binding signal (z-score within array); higher = stronger binding
# Conditions in all cases: glycan notation: IUPAC condensed, linker removed
# [1] = target: GlcNAc(b1-3)Gal(b1-3)GalNAc
# Procedure, shortened: (§1)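 The binding signal is a Z-score computed within each array. Data were drawn from 3228 arrays in the Consortium for Functional Glycomics database, restricted to those with a known protein sequence. Scores were averaged over arrays of the same protein sequence at different concentrations or buffers, and over linkers, and negative values can be taken as non-binding.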
# GlcNAc(b1-3)Gal(b1-4)Glc = target: GlcNAc(b1-3)Gal(b1-4)Glc
# Procedure, shortened: as §1
# [2] = target: GlcNAc(b1-3)Gal(b1-4)GlcNAc
# Procedure, shortened: as §1
# [3] = target: GlcNAc(b1-3)Gal(b1-4)GlcNAc(b1-2)Man(a1-3)[GlcNAc(b1-3)Gal(b1-4)GlcNAc(b1-2)Man(a1-6)]Man(b1-4)GlcNAc(b1-4)GlcNAc
# Procedure, shortened: as §1
# [4] = target: GlcNAc(b1-3)Gal(b1-4)GlcNAc(b1-2)Man(a1-3)[GlcNAc(b1-3)Gal(b1-4)GlcNAc(b1-2)Man(a1-6)]Man(b1-4)GlcNAc(b1-4)[Fuc(a1-6)]GlcNAc
# Procedure, shortened: as §1
# [5] = target: GlcNAc(b1-3)Gal(b1-4)GlcNAc(b1-2)[GlcNAc(b1-3)Gal(b1-4)GlcNAc(b1-6)]Man(a1-6)[GlcNAc(b1-3)Gal(b1-4)GlcNAc(b1-2)Man(a1-3)]Man(b1-4)GlcNAc(b1-4)GlcNAc
# Procedure, shortened: as §1
# [6] = target: GlcNAc(b1-3)Gal(b1-4)GlcNAc(b1-3)Gal(b1-4)GlcNAc
# Procedure, shortened: as §1
# [7] = target: GlcNAc(b1-3)Gal(b1-4)GlcNAc(b1-3)Gal(b1-4)GlcNAc(b1-2)Man(a1-3)[GlcNAc(b1-3)Gal(b1-4)GlcNAc(b1-3)Gal(b1-4)GlcNAc(b1-2)Man(a1-6)]Man(b1-4)GlcNAc(b1-4)GlcNAc
# Procedure, shortened: as §1
# [8] = target: GlcNAc(b1-3)Gal(b1-4)GlcNAc(b1-3)Gal(b1-4)GlcNAc(b1-2)Man(a1-3)[GlcNAc(b1-3)Gal(b1-4)GlcNAc(b1-3)Gal(b1-4)GlcNAc(b1-2)Man(a1-6)]Man(b1-4)GlcNAc(b1-4)[Fuc(a1-6)]GlcNAc
# Procedure, shortened: as §1
# [9] = target: GlcNAc(b1-3)Gal(b1-4)GlcNAc(b1-3)Gal(b1-4)GlcNAc(b1-2)[GlcNAc(b1-3)Gal(b1-4)GlcNAc(b1-3)Gal(b1-4)GlcNAc(b1-6)]Man(a1-6)[GlcNAc(b1-3)Gal(b1-4)GlcNAc(b1-3)Gal(b1-4)GlcNAc(b1-2)Man(a1-3)]Man(b1-4)GlcNAc(b1-4)[Fuc(a1-6)]GlcNAc
# Procedure, shortened: as §1
# [10] = target: GlcNAc(b1-3)Gal(b1-4)GlcNAc(b1-3)Gal(b1-4)GlcNAc(b1-3)Gal(b1-4)GlcNAc(b1-2)Man(a1-3)[GlcNAc(b1-3)Gal(b1-4)GlcNAc(b1-3)Gal(b1-4)GlcNAc(b1-3)Gal(b1-4)GlcNAc(b1-2)Man(a1-6)]Man(b1-4)GlcNAc(b1-4)GlcNAc
# Procedure, shortened: as §1
# [11] = target: GlcNAc(b1-3)Gal(b1-4)GlcNAc(b1-3)Gal(b1-4)GlcNAc(b1-3)Gal(b1-4)GlcNAc(b1-2)Man(a1-3)[GlcNAc(b1-3)Gal(b1-4)GlcNAc(b1-3)Gal(b1-4)GlcNAc(b1-3)Gal(b1-4)GlcNAc(b1-2)Man(a1-6)]Man(b1-4)GlcNAc(b1-4)[Fuc(a1-6)]GlcNAc
# Procedure, shortened: as §1
# [12] = target: GlcNAc(b1-3)Gal(b1-4)GlcNAc(b1-3)Gal(b1-4)GlcNAc(b1-3)Gal(b1-4)GlcNAc(b1-2)[GlcNAc(b1-3)Gal(b1-4)GlcNAc(b1-3)Gal(b1-4)GlcNAc(b1-3)Gal(b1-4)GlcNAc(b1-6)]Man(a1-6)[GlcNAc(b1-3)Gal(b1-4)GlcNAc(b1-3)Gal(b1-4)GlcNAc(b1-3)Gal(b1-4)GlcNAc(b1-2)Man(a1-3)]Man(b1-4)GlcNAc(b1-4)[Fuc(a1-6)]GlcNAc
# Procedure, shortened: as §1
# [13] = target: GlcNAc(b1-3)Gal(b1-4)GlcNAc(b1-3)Gal(b1-4)GlcNAc(b1-3)Gal(b1-4)GlcNAc(b1-3)Gal(b1-4)GlcNAc(b1-2)Man(a1-3)[GlcNAc(b1-3)Gal(b1-4)GlcNAc(b1-3)Gal(b1-4)GlcNAc(b1-3)Gal(b1-4)GlcNAc(b1-3)Gal(b1-4)GlcNAc(b1-2)Man(a1-6)]Man(b1-4)GlcNAc(b1-4)GlcNAc
# Procedure, shortened: as §1
# [14] = target: GlcNAc(b1-3)Gal(b1-4)GlcNAc(b1-3)Gal(b1-4)GlcNAc(b1-3)Gal(b1-4)GlcNAc(b1-3)Gal(b1-4)GlcNAc(b1-2)Man(a1-3)[GlcNAc(b1-3)Gal(b1-4)GlcNAc(b1-3)Gal(b1-4)GlcNAc(b1-3)Gal(b1-4)GlcNAc(b1-3)Gal(b1-4)GlcNAc(b1-2)Man(a1-6)]Man(b1-4)GlcNAc(b1-4)[Fuc(a1-6)]GlcNAc
# Procedure, shortened: as §1
# [15] = target: GlcNAc(b1-3)Gal(b1-4)GlcNAc(b1-3)Gal(b1-4)GlcNAc(b1-3)Gal(b1-4)GlcNAc(b1-3)Gal(b1-4)GlcNAc(b1-2)[GlcNAc(b1-3)Gal(b1-4)GlcNAc(b1-3)Gal(b1-4)GlcNAc(b1-3)Gal(b1-4)GlcNAc(b1-3)Gal(b1-4)GlcNAc(b1-6)]Man(a1-6)[GlcNAc(b1-3)Gal(b1-4)GlcNAc(b1-3)Gal(b1-4)GlcNAc(b1-3)Gal(b1-4)GlcNAc(b1-3)Gal(b1-4)GlcNAc(b1-2)Man(a1-3)]Man(b1-4)GlcNAc(b1-4)[Fuc(a1-6)]GlcNAc
# Procedure, shortened: as §1
# [16] = target: GlcNAc(b1-3)Gal(b1-4)GlcNAc(b1-3)Gal(b1-4)GlcNAc(b1-3)GalNAc
# Procedure, shortened: as §1
# [17] = target: GlcNAc(b1-3)Gal(b1-4)GlcNAc(b1-3)GalNAc
# Procedure, shortened: as §1
# [18] = target: GlcNAc(b1-3)Gal(b1-4)GlcNAc(b1-3)[GlcNAc(b1-3)Gal(b1-4)GlcNAc(b1-3)]GalNAc
# Procedure, shortened: as §1
# [19] = target: GlcNAc(b1-3)Gal(b1-4)GlcNAc(b1-6)[Gal(b1-3)]GalNAc
# Procedure, shortened: as §1
# [20] = target: GlcNAc(b1-3)Gal(b1-4)GlcNAc(b1-6)[GlcNAc(b1-3)Gal(b1-3)]GalNAc
# Procedure, shortened: as §1
# [21] = target: GlcNAc(b1-3)Gal(b1-4)GlcNAc(b1-6)[GlcNAc(b1-3)]Gal(b1-4)GlcNAc
# Procedure, shortened: as §1
# GlcNAc(b1-3)GalNAc = target: GlcNAc(b1-3)GalNAc
# Procedure, shortened: as §1
# GlcNAc(b1-3)Man = target: GlcNAc(b1-3)Man
# Procedure, shortened: as §1
# [22] = target: GlcNAc(b1-3)[GlcNAc(b1-4)][GlcNAc(b1-6)]GlcNAc
# Procedure, shortened: as §1
# [23] = target: GlcNAc(b1-3)[GlcNAc(b1-6)]Gal(b1-4)GlcNAc
# Procedure, shortened: as §1
# [24] = target: GlcNAc(b1-3)[GlcNAc(b1-6)]GalNAc
# Procedure, shortened: as §1
# [25] = target: GlcNAc(b1-4)Gal(b1-4)GlcNAc
# Procedure, shortened: as §1
# GlcNAc(b1-4)GlcNAc = target: GlcNAc(b1-4)GlcNAc
# Procedure, shortened: as §1
# [26] = target: GlcNAc(b1-4)GlcNAc(b1-4)GlcNAc
# Procedure, shortened: as §1
# [27] = target: GlcNAc(b1-4)GlcNAc(b1-4)GlcNAc(b1-4)GlcNAc(b1-4)GlcNAc
# Procedure, shortened: as §1
# [28] = target: GlcNAc(b1-4)GlcNAc(b1-4)GlcNAc(b1-4)GlcNAc(b1-4)GlcNAc(b1-4)GlcNAc
# Procedure, shortened: as §1
# [29] = target: GlcNAc(b1-4)[GlcNAc(b1-6)]GalNAc
# Procedure, shortened: as §1
# [30] = target: GlcNAc(b1-6)Gal(b1-4)GlcNAc
# Procedure, shortened: as §1
# GlcNAc(b1-6)GalNAc = target: GlcNAc(b1-6)GalNAc
# Procedure, shortened: as §1
# [31] = target: GlcNAc6S(b1-3)Gal(b1-4)GlcNAc
# Procedure, shortened: as §1
# Kdn(a2-3)Gal(b1-3)GalNAc = target: Kdn(a2-3)Gal(b1-3)GalNAc
# Procedure, shortened: as §1
binder,measurement,setting,value
B1,glycan array binding signal (z-score),[1],0.004
same,glycan array binding signal (z-score),GlcNAc(b1-3)Gal(b1-4)Glc,-0.537
same,glycan array binding signal (z-score),[2],-0.297
same,glycan array binding signal (z-score),[3],0.058
same,glycan array binding signal (z-score),[4],-0.134
same,glycan array binding signal (z-score),[5],-0.053
same,glycan array binding signal (z-score),[6],-0.214
same,glycan array binding signal (z-score),[7],0.891
same,glycan array binding signal (z-score),[8],0.989
same,glycan array binding signal (z-score),[9],1.38
same,glycan array binding signal (z-score),[10],-0.16
same,glycan array binding signal (z-score),[11],1.07
same,glycan array binding signal (z-score),[12],1.24
same,glycan array binding signal (z-score),[13],0.096
same,glycan array binding signal (z-score),[14],-0.027
same,glycan array binding signal (z-score),[15],0.953
same,glycan array binding signal (z-score),[16],0.24
same,glycan array binding signal (z-score),[17],0.353
same,glycan array binding signal (z-score),[18],0.886
same,glycan array binding signal (z-score),[19],0.058
same,glycan array binding signal (z-score),[20],0.082
same,glycan array binding signal (z-score),[21],-0.214
same,glycan array binding signal (z-score),GlcNAc(b1-3)GalNAc,-0.639
same,glycan array binding signal (z-score),GlcNAc(b1-3)Man,-0.145
same,glycan array binding signal (z-score),[22],-0.459
same,glycan array binding signal (z-score),[23],-0.471
same,glycan array binding signal (z-score),[24],-0.583
same,glycan array binding signal (z-score),[25],0.216
same,glycan array binding signal (z-score),GlcNAc(b1-4)GlcNAc,-0.29
same,glycan array binding signal (z-score),[26],-0.206
same,glycan array binding signal (z-score),[27],0.06
same,glycan array binding signal (z-score),[28],-0.001
same,glycan array binding signal (z-score),[29],-0.058
same,glycan array binding signal (z-score),[30],-0.299
same,glycan array binding signal (z-score),GlcNAc(b1-6)GalNAc,-0.586
same,glycan array binding signal (z-score),[31],0.225
same,glycan array binding signal (z-score),Kdn(a2-3)Gal(b1-3)GalNAc,0.55

# No new results follow: an excerpt of the list.
binder,measurement,setting,value
B1,glycan array binding signal (z-score),[20],0.082
same,glycan array binding signal (z-score),[21],-0.214
